Laboratory results from publication PMC9343881.
No constants are given. Whether binding was seen depends on the method and setting. In cells and extracts the contact can be indirect. Here binding means that the protein was enriched with, or labelled near, the bait; the list need not be complete.

Chains of the proteins cited; added tags and fusions are not shown.
UniProt P06821: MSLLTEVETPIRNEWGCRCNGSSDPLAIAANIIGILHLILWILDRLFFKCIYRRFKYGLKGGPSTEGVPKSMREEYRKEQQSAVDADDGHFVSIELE

Target: M2 used in the immunoprecipitation with mass spectrometry (IP-MS) (influenza A virus (strain not stated for this experiment)) (UniProt P06821)
Assay: affinity purification with mass spectrometry

B1: endogenous YWHAG (protein, UniProt P61981 1-247)
chain: MVDREQLVQKARLAEQAERYDDMAAAMKNVTELNEPLSNEERNLLSVAYKNVVGARRSSWRVISSIEQKTSADGNEKKIEMVRAYREKIEKELEAVCQDVLSLLDNYLIKNCSETQYESKVFYLKMKGDYYRYLAEVATGEKRATVVESSEKAYSEAHEISKEHMQPTHPIRLGLALNYSVFYYEIQNAPEQACHLAKTAFDDAIAELDTLNEDSYKDSTLIMQLLRDNLTLWTSDQQDDDGGEGNN
In the case of B1, the binding is reported as “binds”.
